# Reference: PubChem BioAssay AID540275 (National Center for Advancing Translational Sciences (NCATS), 2011)
# Chains of the proteins cited; added tags and fusions are not shown.
# UniProt Q8NER1, whole entry, looked up: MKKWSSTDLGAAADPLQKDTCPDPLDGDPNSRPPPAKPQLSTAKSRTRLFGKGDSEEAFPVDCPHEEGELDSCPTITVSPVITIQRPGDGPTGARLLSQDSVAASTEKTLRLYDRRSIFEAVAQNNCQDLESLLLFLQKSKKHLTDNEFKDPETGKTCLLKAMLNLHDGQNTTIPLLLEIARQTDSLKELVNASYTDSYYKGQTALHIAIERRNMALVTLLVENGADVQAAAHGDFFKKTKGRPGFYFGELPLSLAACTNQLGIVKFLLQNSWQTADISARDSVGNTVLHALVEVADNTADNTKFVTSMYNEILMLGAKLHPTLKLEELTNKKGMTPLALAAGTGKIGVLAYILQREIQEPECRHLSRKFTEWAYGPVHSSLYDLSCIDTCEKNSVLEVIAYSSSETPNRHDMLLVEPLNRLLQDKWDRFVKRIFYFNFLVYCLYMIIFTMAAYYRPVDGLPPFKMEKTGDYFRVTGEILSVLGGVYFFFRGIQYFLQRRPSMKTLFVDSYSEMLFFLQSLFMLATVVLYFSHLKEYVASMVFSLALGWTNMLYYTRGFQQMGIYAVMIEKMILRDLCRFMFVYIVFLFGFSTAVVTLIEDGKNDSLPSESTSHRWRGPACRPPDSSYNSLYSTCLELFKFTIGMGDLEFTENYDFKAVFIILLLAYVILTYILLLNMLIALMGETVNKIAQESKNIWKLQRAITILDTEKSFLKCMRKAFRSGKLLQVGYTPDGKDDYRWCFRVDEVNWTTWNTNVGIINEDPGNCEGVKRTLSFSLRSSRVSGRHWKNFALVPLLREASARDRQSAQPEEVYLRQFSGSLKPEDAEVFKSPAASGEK
# Several values for one entry are separate records, joined by “and”; a condition that tells them apart may be missing. Equal values may be shown once. Hit rate of the full screen: of about 320,000 compounds, about 620 (0.19%) were called active. Inconclusive results, whose numbers are uncertain, are shown with a selection of clear calls. Cut-off read from the data, not from the text of the source: active = activation above about 80%; inconclusive = between about 30% and that limit; inactive = weaker than that.
# Biological target: Transient receptor potential cation channel subfamily V member 1 (Homo sapiens) (UniProt Q8NER1)
# Assay: HTS Assay for Compounds that Act as Agonists of the Vanilloid Receptor 1; note: 0% is about no effect
# Conditions: TRPV1-expressing cells, Fluo-8 calcium influx, agonist mode; at 8.33 µM, stronger effect = higher value
# Outline: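 Cells expressing TRPV1 were dye-loaded with Fluo-8 and read kinetically: 10 s baseline, 3 min after compound (agonist portion), then 2 min after EC20 capsaicin (allosteric enhancer portion). Calcium-bound dye fluorescence at 480/520 nm.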
row,SMILES,activation
1,COc1ccc(CCNC(=O)C2CC3Cn4c(nc5cc(Cl)c(Cl)cc54)C3N2C)cc1 (stereo unspecified),inactive: 0.0208%
2,CC(C)COP(=O)(OCC(C)C)C(Nc1ccccc1)c1ccccc1 (stereo unspecified),inconclusive: 58.1%
3,C/C(=N\NC(=O)c1ccc(-n2cnnn2)cc1)c1ccc(Cl)cc1,inconclusive: 38.6%
4,Cc1ccc(-c2nc(SCC(=O)NCC3CCCO3)c(-c3ccc(C)cc3)[nH]2)cc1 (stereo unspecified),inconclusive: 41.9%
5,O=C(N/C(=C\c1cccs1)C(=O)N1CCCCCC1)c1ccccc1,inconclusive: 45.5%
6,COc1cc(-c2noc(C)c2/C=C/c2cccc([N+](=O)[O-])c2)cc(OC)c1OC,inconclusive: 36.9%
7,O=C(c1cc([N+](=O)[O-])ccc1Cl)N1c2ccccc2Sc2ccccc21,inactive: -4.46%
8,CN1CCCC(OC(=O)c2ccccc2F)C1 (stereo unspecified),inactive: 0.905%
9,CC(C)(C)c1ccc(OCC(=O)Nc2ccncc2)c(Br)c1,active: 97.1%
10,CN1CC(=O)NC1=NC(=O)C12CC3CC(CC(C3)C1)C2,inactive: 14.3%
11,Cc1nc(Nc2ccccc2)sc1C(=O)Nc1ccccc1,inconclusive: 31.6%
12,Nc1c(-c2ccc(Cl)cc2)cnn1-c1cccc(C(F)(F)F)c1,inconclusive: 37.6%
13,O=C(NCc1ccccc1)c1cccc(COc2cc(Cl)ccc2Cl)c1,inconclusive: 32.8%
14,Cc1cnc(C(=O)Nc2ccc(C)c(S(=O)(=O)N3CCCCCC3)c2)cn1,inconclusive: 62.9%
15,CCOCc1c(C(=O)OCC(=O)/C(C#N)=C(\C)N)oc2ccccc12,inconclusive: 30.6%
16,COC(=O)c1ccccc1NC(=O)Nc1cc(C(C)(C)C)on1,inconclusive: 46%
17,COCCN(Cc1ccccc1)C(=O)Cc1ccc(S(=O)(=O)N2CCOCC2)s1,inconclusive: 59.4%
18,Cc1ccc(-n2sc3ccccc3c2=O)cc1,inconclusive: 43.4%
19,COc1ccc(C2=CC(=O)C[C@H](c3ccc(Cl)cc3)C2)cn1,inconclusive: 37%
20,COc1cccc(-c2c(C(=O)N/N=C(\C)c3ccncc3)nnn2-c2nonc2N)c1,inactive: -1.71%
21,CC1CCC(NC(=O)c2cc(C3CC3)nn2-c2ccccc2)CC1 (stereo unspecified),inconclusive: 43.2%
22,CCCn1nc(C(=O)NNC(=O)Cc2ccc(S(=O)(=O)N3CCOCC3)s2)c2ccccc2c1=O,inactive: -2.16%
23,CC(C)(C)c1cc(NC(=O)c2cccc([N+](=O)[O-])c2)no1,inconclusive: 50.3%

row,SMILES,activation
1,CC1(c2cccc(Br)c2)NC(=O)N(CC(=O)NC2CCCCC2)C1=O (stereo unspecified),inactive: 1.1%
2,O=C(NC1CCN(CC(=O)N(c2ccccc2)c2ccccc2)CC1)c1ccc([N+](=O)[O-])cc1,inactive: -5.21%
3,COc1ccc(CC(=O)N2CCN(c3ccccc3F)CC2)cc1OC,inconclusive: 51.3%
4,S=C(NCCSCc1ccccc1Cl)Nc1ccccc1,inconclusive: 49.5%
5,[O-][n+]1onc2c1CCC(=N/O)/C2=N\Nc1ccccc1,inactive: 0.512%
6,O=C(O)CN1CCN(Cc2ccc(F)cc2Cl)C1=O,inconclusive: 46%
7,CCOC(=O)c1sc(SCC(=O)Nc2ccc(N(C)C)cc2)nc1N,inconclusive: 30.9%
8,O=C(N/N=C/c1cccc(Oc2ccccc2)c1)c1cccc(O)c1,inconclusive: 32.3%
9,NNC(=O)COc1ccc(-c2nccc(-c3ccc(F)cc3)n2)cc1,inconclusive: 30.1%
10,COc1ccc(/C=C2\SC(N3CCCCC3)=NC2=O)cc1OC,inconclusive: 37.3%
11,CCCCCC(=O)N1CCN(c2ccc(C(C)=O)cc2F)CC1,inconclusive: 38.9%
12,O=C(Nc1ccncc1)C1CCN(S(=O)(=O)c2c(Cl)cccc2Cl)CC1,inconclusive: 48.3%
13,O=C(c1ccc(Br)o1)N1CCN(Cc2ccccc2Cl)CC1,inconclusive: 43.9%
14,Cc1ccc(Nc2nc(Oc3ccc(OCc4ccccc4)nn3)nc(N3CCOCC3)n2)cc1,inconclusive: 70%
15,Cc1ccccc1-c1ccc(C(=O)NCc2ccccc2)o1,inconclusive: 69.6%
16,Cc1cc(C)nc(NC(=NCCc2c[nH]c3ccccc23)NC(=O)c2ccco2)n1,inconclusive: 32.2%
17,CCC(=O)c1c[nH]c(C(=O)NCc2cccs2)c1,inactive: -1.01%
18,COc1cc(C2NC(=S)NC(c3ccccc3)=C2C(C)=O)cc(Cl)c1OCC(=O)O (stereo unspecified),inactive: -0.0282%
19,O=C(Nc1ccc2c(c1)C(=O)N(C1CCCCC1)C2=O)C1CCCO1 (stereo unspecified),inconclusive: 33.2%
20,COc1ccc(C2=C/C(=C\c3ccc(OC(C)=O)cc3)C(=O)O2)cc1,inactive: 0.283%
21,Cc1ccc(NC(=O)c2cc(-c3ccc(C)o3)nc3ccccc23)nc1,inconclusive: 44.3%
22,C/C(=N\NC(=O)c1ccncc1)c1cccc(NC(=O)c2ccc(C(C)(C)C)cc2)c1,active: 84.8%
23,COc1ccc(/C=N/NC(=O)c2ccc(O)cc2)cc1CN1CCCc2ccccc21,inconclusive: 56%

row,SMILES,activation
1,CC(C)(C)c1ccc(/C=C/C(=O)Nc2ccncc2)cc1,active: 96.2%
2,Cc1ccc(C(=O)Nc2ncc(Cc3ccc(F)cc3)s2)o1,inconclusive: 66.6%
3,COc1ccc(OCC(=O)Nc2ccncc2)cc1,inconclusive: 38.7%
4,C=CCn1c(COc2cccc3ccc(C)nc23)nnc1SCC(=O)O,inactive: -3.46%
5,CC(C)c1ccccc1NC(=O)CNCCOc1ccccc1F,inconclusive: 42.3%
6,COc1ccc(NC(=O)c2cc3c(Cl)nc4ccccc4c3s2)cc1OC,inactive: 4.2%
7,COc1ccc(/C=C(\C#N)C(=O)OCC(=O)Nc2ccc(C(C)(C)C)cc2)cc1,inconclusive: 40.6%
8,O=C(Nc1cccc2ccccc12)c1ccc(Br)o1,inconclusive: 57.7%
9,CCC(=O)Nc1ccc(C(=O)NNC(=O)COc2cccc(C)c2)cc1,inactive: 18.5%
10,CC12CCC(=O)N1C(C(=O)Nc1nc(-c3ccccc3Cl)cs1)CS2 (stereo unspecified),inactive: 21.5%
11,COc1ccccc1C(=O)N1CCc2ccccc21,inactive: -1.44%
12,Cc1ccc(C(=O)Nc2ccc3c(c2)CCC3)cc1,inconclusive: 76.4%
13,CCN(CCCNC(=O)c1c(C)cc(=O)oc1C)c1cccc(C)c1,inconclusive: 37.9%
14,C[C@@H](CN=[N+]=[N-])CN1CC[C@H](C(C)(C)C)CCC1=O,inconclusive: 34.1%
15,CCOc1ccc(CNC(=O)c2ccc(Sc3ccc(Cl)cc3)c(NC(C)=O)c2)cc1,inconclusive: 54.4%
16,Cc1ccc(C(=O)N/N=C/c2ccc([N+](=O)[O-])s2)cc1,inconclusive: 55%
17,Cc1cc(C)nc(NS(=O)(=O)c2ccc(NC(=O)c3cccs3)cc2)n1,inconclusive: 69.2%
18,CC(C)(C)c1ccc(OCc2ccc(C(=O)N/N=C/c3ccc(O)c(O)c3)cc2)cc1,inconclusive: 50.3%
19,CCCCOc1ccc(C2C(=O)N(C3CCCCC3)CC(=O)N2CC2CCCO2)cc1 (stereo unspecified),inconclusive: 31.7%
20,CCC1CN(C(=O)NCc2cccc(OC)c2)c2cc(Cl)ccc2O1 (stereo unspecified),inconclusive: 34.7%
21,c1ccc2c(c1)Cn1nc(Cc3nc4c(s3)CCCC4)nc1-2,inactive: -0.216%
22,Cc1cc(N2CCN(c3ccc(F)cc3)CC2)nc2cc(O)ccc12,inactive: -0.787%
23,COc1ccc(C(=O)/C=C/C(=O)N(Cc2ccc(F)cc2)C(C(=O)NC2CCCCC2)c2ccncc2)c(O)c1 (stereo unspecified),inconclusive: 49.6%

# Taken from the results shown, 3 compounds:
row,SMILES,activation
4,C=CCn1c(COc2cccc3ccc(C)nc23)nnc1SCC(=O)O,inactive: -3.46%
5,CC(C)c1ccccc1NC(=O)CNCCOc1ccccc1F,inconclusive: 42.3%
6,COc1ccc(NC(=O)c2cc3c(Cl)nc4ccccc4c3s2)cc1OC,inactive: 4.2%

# Further structures follow:

row,SMILES,activation
1,CC(C)OC(=O)CSc1nc2cc3c(cc2cc1C#N)OCO3,inconclusive: 40.3%
2,O=C(Nc1ccccc1F)N1CCc2ccccc2C1,inconclusive: 30.8%
3,COc1ccccc1CNC(=O)CN(c1cccc([N+](=O)[O-])c1)S(C)(=O)=O,inactive: 2.92%
4,CC(C)(C)OC(=O)Nc1ccc([C@@H](NC(=O)OC(C)(C)C)C(=O)OC(C)(C)C)cc1,inconclusive: 34.5%
5,CCOC(=O)c1sc(NC(=O)C2CCC2)cc1C,inconclusive: 63.3%
6,C=CCn1c(C(CC)CC)nc2ccccc21,inactive: -4.54%
7,O=C(NN=C1CCCC1)c1ccc(O)cc1,inactive: 19.1%
8,CO/N=C(/CNC(=O)c1ccc(Cl)cc1Cl)c1ccc(Cl)cc1,inconclusive: 31%
9,O=C(NNC(=O)c1ccc2c(=O)n3c(nc2c1)CCC3)c1ccc(Cl)cc1,inactive: 2.48%
10,O=C(COC(=O)C12CC3CC(CC(C3)C1)C2)Nc1ccc2[nH]c(=O)[nH]c2c1,active: 92.5%
11,COc1cccc(=O)c2c(C)n(C)c(C)c12,inactive: 1.18%
12,O=C(N/N=C/c1ccc(F)cc1)c1ccc(-n2cnnn2)cc1,inconclusive: 70.4%
13,O=C(Nc1nc2nc(-c3ccccc3)cc(-c3ccccc3)n2n1)c1ccco1,inconclusive: 47.5%
14,CCCCCCn1cc(C(=O)OCC)c(=O)c2cc(F)c(F)cc21,inactive: 8.86%
15,CN(C)S(=O)(=O)Nc1cccc(Br)c1,inactive: 1.92% and inactive: 1.67%
16,COc1ccc(CNC(=S)NCc2ccc(Cl)cc2)cc1OC,active: 97%
17,CC(C)(C)c1ccc(OCc2ccc(C(=O)NCc3cccnc3)o2)cc1,inconclusive: 68%
18,COc1ccc(-c2cc3nc(C)cc(-c4ccc(OC)cc4)n3n2)cc1,inactive: 8.03%
19,O=C(O)/C=C\C(=O)Nc1ccc(Oc2ccc(Br)cc2)cc1,inactive: 0.797%
20,CS(=O)(=O)Nc1ccc(C(=O)NCCc2ccccc2)cc1,inconclusive: 32.9%
21,N#C/C(=C\c1ccc(N2CCOCC2)o1)C(=O)NCC1CCCO1 (stereo unspecified),inactive: -0.48%
22,CC1(C)CC(=O)C=C(NNC(=O)c2ccccc2O)C1,inactive: 5.7%
